Reference: PubChem BioAssay AID1458 (National Center for Advancing Translational Sciences (NCATS), 2008)
Out of some 210,000 compounds screened, about 5,900 (2.8%) were called active. All entries are inconclusive by the source's own rule. Clear calls are listed elsewhere. Calls come from the whole dose curve; as a rule, active = well fitted activation curve with a large enough effect; inconclusive = small, poorly fitted or top-dose-only effect; inactive = no such curve, though single readings can be large or run the other way.
Potency is the fitted concentration of half-maximal effect.

Test: qHTS Assay for Enhancers of SMN2 Splice Variant Expression; note: nearly all actives have a fitted effect of over 55% in size
Details: HEK293 SMN2-luciferase splicing reporter, luminescence, 30-36 h
For `N#CC1(Nc2ccccc2)CCN(CCc2ccccc2)CC1`, the Potency was inconclusive: 14.1 nM.
